The nature of this experiment: qHTS Assay for Lipid Storage Modulators in Drosophila S3 Cells.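 As to cell number change: cells counted by Cell Tracker Red CMTPX staining in the red channel.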 As to conditions: BODIPY lipid droplet fluorescence, 18-24 h; for cell number change: measured here: cell count max response, cells fed with added oleic acid. The essentials: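 Drosophila S3 cells loaded with oleic acid (400 uM, as added) and compounds at several concentrations; lipid droplets imaged by 488-nm laser-scanning cytometry, 500–530 nm intensity and object ratio to cell channel. Percent activity normalized to 20 uM Triacsin C.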
(In general: Quantitative high-throughput screening tests each substance at several concentrations.)

Where [1] appears, read: measured here: cell number channel AC50, cells fed with added oleic acid.
The mark [2] stands for this setting: measured here: lipid fluorescence (Fed channel) AC50, cells fed with added oleic acid.

The structures appear in SMILES notation. Some of the results follow. Further columns of the screen follow, without active or inactive calls. The list favours compounds with an active or inconclusive main result. Potencies come from curve fits of mixed quality, noted in brackets.

In general, AC50 refers to the midpoint of the concentration-response curve, whichever way the signal moves. A higher AC50 goes with activity only at high concentration. For `CCOc1cc2[nH]c(=S)n(Cc3ccc(C(=O)NCCOC)cc3)c(=O)c2cc1OCC`, the half-maximal activity concentration (AC50) under setting [1] was 1.16 µM [rising, partial curve] and the AC50 under setting [2] was 1.84 µM [rising, full curve].
Consider `Cc1cc(C)nc(NC(=O)CN2C(=O)c3ccccc3C2=O)n1`, for which the cell number change stood at 7.71%. The AC50 under setting [2] is 6.51 µM [rising, single point].
Regarding `CCOc1ccc(CCNC(=O)c2nnn(CC(=O)Nc3ccc(C)cc3)c2N)cc1OCC`, the cell number change was 0.295%. The AC50 under setting [2] was 6.51 µM [falling, single point].
In the case of `COc1ccc(NC(=O)CSc2ncnc3c2cnn3Cc2ccccc2)cc1OC`, the cell number change was found to be 44.2%. Under setting [1], the half-maximal activity concentration (AC50) was 0.461 µM [rising, full curve]. The AC50 under setting [2] is 2.31 µM [rising, partial curve].
For `O=C(Oc1c(Cl)cc(Cl)c2cccnc12)N1CCOCC1`, the cell number change was -3.59%. The AC50 under setting [2] is 0.366 µM [rising, full curve, poor fit].
For `COc1ccc(NC(=O)CSCc2cc(=O)n3cc(C)sc3n2)cc1`, the cell number change came to 11%. In addition, the AC50 under setting [1] is 0.13 µM [rising, full curve, poor fit]. For the same molecule, under setting [2], the AC50 is 0.58 µM [rising, single point].
`COCCn1c(=O)[nH]c2cc(C(=O)N3CCN(c4cccc(C)c4C)CC3)ccc2c1=O`: the cell number change came out at 7.26%. Also, the AC50 under setting [2] is 3.66 µM [falling, full curve].
For `C=CCNC(=S)NC(CC(=O)OC)c1ccc2c(c1)OCO2` (stereo not drawn), the AC50 under setting [1] is 7.31 µM [rising, single point] and the concentration at half-maximal activity (AC50) under setting [2] was 6.51 µM [rising, single point].
Regarding `CS(=O)(=O)c1ccc(-c2cn3cc(C(=O)O)ccc3n2)cc1`, the cell number change was determined as 8.66%. Moreover, the AC50 under setting [2] is 3.26 µM [rising, partial curve, poor fit].
Take `CC(=O)c1ccc(N2CCN(CC3CCCCC3)CC2)cc1`: the cell number change is 7.91%. Moreover, the AC50 under setting [2] is 3.26 µM [rising, partial curve, poor fit].
With `CC(Cc1n[nH]c(=S)o1)c1ccccc1` (stereo not drawn), the cell number change amounted to 9.44%. In addition, the AC50 under setting [2] is 3.26 µM [falling, single point].
On to `CCOC(=O)C1(Cc2cccc(OC)c2)CCN(Cc2ccc3c(c2)OCCO3)CC1`, for which the cell number change is -43.1%. Further, the AC50 under setting [1] was 0.092 µM [falling, full curve]. Moreover, the AC50 under setting [2] is 4.11 µM [falling, partial curve, poor fit].
With `Cc1cccc(C(=O)Oc2ccccc2C(=O)N2CCOCC2)c1`, the cell number change is -22.6%.
Still for that read-out and setting: then `Cc1ccc2cccc(OCc3ccc(F)cc3)c2n1`, with -5.29%.
Take `CCOC(=O)N1CC=C2C(C#N)=C(N)C(C#N)(C#N)[C@H](c3ccsc3)[C@H]2C1`: the cell number change was -18.4%. Also, the AC50 under setting [2] was 3.66 µM [rising, single point].
With `O=C(c1ccccn1)N(Cc1ccco1)C1(C(=O)NC2CCCCC2)CCCCC1`, the cell number change is -24.9%. Also, under setting [1], the AC50 is 0.0651 µM [falling, full curve, poor fit].
In the case of `COc1ccc(CC(=O)N(C)Cc2cccc(OC)c2OC)cc1S(=O)(=O)N1CCOCC1`, the cell number change was -34.7%. Under setting [1], the AC50 was 32.6 µM [falling, single point].
Consider `Cc1ccc(SCC(=O)c2ccc[nH]2)cc1`, for which the cell number change stood at 34.3%.
Turning to `Brc1ccc(Oc2nsnc2N2CCOCC2)cc1`, the cell number change is 11.8%. Besides, under setting [2], the AC50 was 4.61 µM [rising, full curve, poor fit].
With `O=C(c1ccccc1)c1cc2ccccc2oc1=O`, under setting [1], the AC50 was 6.51 µM [rising, single point].
Turning to `CCOc1cccc(=O)c2c(C)n(Cc3ccccc3)c(C)c12`, the cell number change was found to be 31.7%. For the same molecule, the AC50 under setting [1] was 32.6 µM [rising, single point].
With `COCC(=O)Nc1ccc(S(=O)(=O)Nc2nccs2)cc1`, the cell number change came to 6.74%. Moreover, under setting [2], the AC50 is 0.517 µM [rising, full curve, poor fit].
`CC(=O)n1cc(N(C(=O)CCl)c2ccc(Cl)cc2)c2ccccc21`: the cell number change is -52%. Moreover, the AC50 under setting [1] is 32.6 µM [falling, partial curve, poor fit].
On to `O=C(Nc1ccc2c(c1)Cc1ccccc1-2)c1ccco1`, for which the AC50 under setting [1] was 0.651 µM [rising, partial curve].
With `O=C1Nc2cc(C(=O)NCCCN3CCOCC3)ccc2S/C1=C/c1cccc(Cl)c1`, the cell number change was -8.26%. Besides, the AC50 under setting [2] is 18.4 µM [rising, single point].
As to `Cc1ccc(NC(=O)Cn2nc(C(=O)O)c3ccccc3c2=O)cc1S(=O)(=O)N1CCOCC1`, the cell number change was -16.4%. In addition, the AC50 under setting [2] was 0.326 µM [rising, full curve, poor fit].
For `CCOc1ccc(CCNC(=O)CCc2nnc3ccc(N4CCOCC4)nn23)cc1`, the cell number change was 19.6%. The AC50 under setting [2] was 29.1 µM [rising, single point].
Regarding `COc1ccc(-n2c(=S)[nH]c3cc(C(=O)NCCCN4CCCC4=O)ccc3c2=O)c(OC)c1`, the cell number change amounted to 30.9%. Also, the AC50 under setting [1] was 29.1 µM [rising, single point]. The AC50 under setting [2] was 29.1 µM [rising, single point].
`O=C(Nc1cccc(Br)c1)c1ccc2snnc2c1`: the AC50 under setting [2] is 29.1 µM [falling, single point].
As to `O=C(CSc1nnnn1-c1ccccc1)Nc1nc(-c2ccccc2)ns1`, the cell number change was 99.8%. Further, under setting [1], the half-maximal activity concentration (AC50) is 16.4 µM [rising, partial curve]. Under setting [2], the AC50 is 6.51 µM [rising, single point].
With `COc1ccc(CN2CCN(Cc3ccc(CO)o3)CC2CCO)cc1C` (stereo not drawn), the cell number change was found to be 11%.
For the molecule `NN/C(=C\[N+](=O)[O-])Nc1ccc(Cl)cc1`, the cell number change was 39.3%.
Consider `COc1ccc(C(C)=O)cc1CSc1nnc(Nc2c(C)cccc2C)s1`, for which the AC50 under setting [1] was 0.731 µM [rising, single point].
In the case of `CCOC(=O)/C=C1\SCC(=O)N1CC(=O)NCc1cccc(Cl)c1`, the cell number change turned out to be 16.3%. Under setting [2], the AC50 was 7.31 µM [rising, partial curve, poor fit].
Regarding `COc1ccc([N+](=O)[O-])cc1NC(=O)c1csc(C)c1`, the cell number change is 34.6%. For the same molecule, under setting [1], the AC50 was 25.9 µM [rising, single point].
For `CC1=NN(C(=O)c2nn(C)cc2Br)C(O)(C(F)(F)F)C1` (stereo not drawn), the cell number change came out at 12.6%. Under setting [2], the AC50 is 0.0291 µM [rising, full curve, poor fit].
Turning to `N=C1CCC(=N)c2c1c(O)c1ccccc1c2O`, the cell number change was 6.06%. Besides, under setting [2], the AC50 was 20.6 µM [falling, single point].
Regarding `O=C(/C(=C/c1cccc(Cl)c1)c1nc2ccccc2[nH]1)c1ccccc1`, the AC50 under setting [2] is 14.6 µM [falling, partial curve].
On to `C/C(=N\NC(=O)CSc1nc2ccccc2o1)c1cccc(O)c1`, for which the cell number change is -29.8%. The AC50 under setting [2] is 10.3 µM [falling, partial curve].

These data come from PubChem BioAssay AID2685 (National Center for Advancing Translational Sciences (NCATS), 2010).
